In US4183909A (Richter Gedeon Vegyeszeti Gyar Rt., priority 1976, dated 1980):

Assay: general procedure: solution-phase peptide synthesis; active esters (BOC-Trp-OSu, BOC-OGly-OPCP, BOC-D-OAla-OPCP) with triethylamine i
[1] = late stage modification step, HCl

Row | Substance | step yield (coupling step) | other results
1 | Boc-W[Nva]D[dPhg]-NH2 | 66.2% | –
2 | Boc-W[Nle]D[dPhg]-NH2 | 97.5% | –
3 | Boc-WLD[dPhg]-NH2 | 72.8% | –
4 | PEPTIDE1{[Boc].[D-OAla].W.M.D.[L-Phg].[am]}$$$$V2.0 | 56% | –
5 | H-WMD[dPhg]-NH2 | – | step yield (late stage modification step): 78%
6 | PEPTIDE1{[Boc].[D-OAla].W.L.D.[D-Phg].[am]}$$$$V2.0 | 56% | –
7 | BOC-Trp-D-Ade-L-Asp-D-Phg-NH2 | 80.4% | –
8 | H-Trp-Nva-Asp-D-Phg-NH2.HCl | – | step yield [1]: 99.0%
9 | Boc-WLD[Phg]-NH2 | 65% | –
10 | BOC-OGly-Trp-Met-Asp-D-Phg-NH2 | 41.4% | –
11 | H-Trp-L-Ade-Asp-D-Phg-NH2.HCl | – | step yield [1]: 98%
12 | BOC-Trp(For)-L-Ade-Asp-D-Phg-NH2 | 92.0% | –
13 | Boc-WMD[Phg]-NH2 | 97.9% | –
14 | BOC-OGly-Trp-Leu-Asp-D-Phg-NH2 | 31.3% | –
15 | PEPTIDE1{[Boc].[D-OAla].W.M.D.[D-Phg].[am]}$$$$V2.0 | 53.5% | –
16 | H-Trp-Leu-Asp-L-PHg-NH2 | – | step yield (late stage modification step): 61%
17 | H-WLD[dPhg]-NH2 | – | step yield (late stage modification step): 93.7%
18 | H-Trp-D-Ade-Asp-D-Phg-NH2.HCl | – | step yield [1]: 93.8%
19 | H-Trp-Nle-Asp-D-Phg-NH2.HCl | – | step yield [1]: 99.0%
20 | H-WMD[Phg]-NH2 | – | step yield (late stage modification step): 76.5%
21 | BOC-OGly-Trp-Met-Asp-L-Phg-NH2 | 37.2% | –
22 | PEPTIDE1{[Boc].[D-OAla].W.L.D.[L-Phg].[am]}$$$$V2.0 | 34.2% | –
23 | BOC-OGly-Trp-Leu-Asp-L-Phg-NH2 | 40.5% | –
24 | BOC-Trp-Met-As-D-Phg-NH2 | 95.8% | –

HELM strings list residues between dots; [ac] is acetyl, [am] amide, other brackets name non-standard units. Square brackets hold non-standard residues; d marks the D form. * marks the point of attachment. dPhg = N[C@@H](C(=O)O)c1ccccc1; Phg = N[C@H](C(=O)O)c1ccccc1; Nle = CCCC[C@H](N)C(=O)O; Nva = CCC[C@H](N)C(=O)O; Boc = CC(C)(C)OC(=O)*
